In the supplement of paper PMC8728848:
The other results are listed elsewhere or left out.

Assays:
Assay in all cases: glycan array binding signal (z-score within array); higher = stronger binding
Details in all cases: glycan notation: IUPAC condensed, linker removed
Fuc(a1-2)Gal = target: Fuc(a1-2)Gal
Summary of the method: (§1)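 From the Consortium for Functional Glycomics database, 3228 arrays were curated, keeping only those whose protein sequence was available. Binding is given as a within-array Z-score averaged across arrays sharing a protein sequence and across linkers. Negative Z-scores can be read as non-binding.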

Fuc(a1-2)Gal(b1-3)GalNAc = target: Fuc(a1-2)Gal(b1-3)GalNAc
Summary of the method: as §1

[1] = target: Fuc(a1-2)Gal(b1-3)GalNAc(a1-3)[Fuc(a1-2)]Gal(b1-4)Glc
Summary of the method: as §1

[2] = target: Fuc(a1-2)Gal(b1-3)GalNAc(a1-3)[Fuc(a1-2)]Gal(b1-4)GlcNAc
Summary of the method: as §1

[3] = target: Fuc(a1-2)Gal(b1-3)GalNAc(b1-3)Gal
Summary of the method: as §1

[4] = target: Fuc(a1-2)Gal(b1-3)GalNAc(b1-3)Gal(a1-4)Gal(b1-4)Glc
Summary of the method: as §1

[5] = target: Fuc(a1-2)Gal(b1-3)GalNAc(b1-4)[Neu5Ac(a2-3)]Gal(b1-4)Glc
Summary of the method: as §1

Fuc(a1-2)Gal(b1-3)GlcNAc = target: Fuc(a1-2)Gal(b1-3)GlcNAc
Summary of the method: as §1

[6] = target: Fuc(a1-2)Gal(b1-3)GlcNAc(b1-2)Man(a1-3)[Fuc(a1-2)Gal(b1-3)GlcNAc(b1-2)Man(a1-6)]Man(b1-4)GlcNAc(b1-4)GlcNAc
Summary of the method: as §1

[7] = target: Fuc(a1-2)Gal(b1-3)GlcNAc(b1-2)Man(a1-3)[Fuc(a1-2)Gal(b1-3)GlcNAc(b1-2)Man(a1-6)]Man(b1-4)GlcNAc(b1-4)[Fuc(a1-6)]GlcNAc
Summary of the method: as §1

[8] = target: Fuc(a1-2)Gal(b1-3)GlcNAc(b1-3)Gal(b1-4)Glc
Summary of the method: as §1

[9] = target: Fuc(a1-2)Gal(b1-3)GlcNAc(b1-3)GalNAc
Summary of the method: as §1

[10] = target: Fuc(a1-2)Gal(b1-3)GlcNAc(b1-3)[Fuc(a1-2)Gal(b1-3)GlcNAc(b1-6)]GalNAc
Summary of the method: as §1

[11] = target: Fuc(a1-2)Gal(b1-3)GlcNAc(b1-3)[Gal(b1-4)GlcNAc(b1-6)]Gal(b1-4)Glc
Summary of the method: as §1

[12] = target: Fuc(a1-2)Gal(b1-3)GlcNAc(b1-3)[Neu5Ac(a2-6)Gal(b1-4)GlcNAc(b1-6)]Gal(b1-4)Glc
Summary of the method: as §1

[13] = target: Fuc(a1-2)Gal(b1-3)GlcNAc6S
Summary of the method: as §1

[14] = target: Fuc(a1-2)Gal(b1-3)[Fuc(a1-4)]GlcNAc
Summary of the method: as §1

[15] = target: Fuc(a1-2)Gal(b1-3)[Fuc(a1-4)]GlcNAc(b1-2)Man(a1-3)[Fuc(a1-2)Gal(b1-3)[Fuc(a1-4)]GlcNAc(b1-2)Man(a1-3)]Man(b1-4)GlcNAc(b1-4)GlcNAc
Summary of the method: as §1

[16] = target: Fuc(a1-2)Gal(b1-3)[Fuc(a1-4)]GlcNAc(b1-2)Man(a1-3)[Fuc(a1-2)Gal(b1-3)[Fuc(a1-4)]GlcNAc(b1-2)Man(a1-6)]Man(b1-4)GlcNAc(b1-4)[Fuc(a1-6)]GlcNAc(b1-4)[Fuc(a1-6)]GlcNAc
Summary of the method: as §1

[17] = target: Fuc(a1-2)Gal(b1-3)[Fuc(a1-4)]GlcNAc(b1-3)[Fuc(a1-3)[Gal(b1-4)]GlcNAc(b1-6)]Gal(b1-4)Glc
Summary of the method: as §1

[18] = target: Fuc(a1-2)Gal(b1-3)[Fuc(a1-4)]GlcNAc(b1-3)[Gal(b1-4)GlcNAc(b1-6)]Gal(b1-4)Glc
Summary of the method: as §1

Fuc(a1-2)Gal(b1-4)Glc = target: Fuc(a1-2)Gal(b1-4)Glc
Summary of the method: as §1

Fuc(a1-2)Gal(b1-4)Glc6S = target: Fuc(a1-2)Gal(b1-4)Glc6S
Summary of the method: as §1

Fuc(a1-2)Gal(b1-4)GlcNAc = target: Fuc(a1-2)Gal(b1-4)GlcNAc
Summary of the method: as §1

[19] = target: Fuc(a1-2)Gal(b1-4)GlcNAc(b1-2)Man
Summary of the method: as §1

[20] = target: Fuc(a1-2)Gal(b1-4)GlcNAc(b1-2)Man(a1-3)[Fuc(a1-2)Gal(b1-4)GlcNAc(b1-2)Man(a1-6)]Man(b1-4)GlcNAc(b1-4)GlcNAc
Summary of the method: as §1

[21] = target: Fuc(a1-2)Gal(b1-4)GlcNAc(b1-2)Man(a1-3)[Fuc(a1-2)Gal(b1-4)GlcNAc(b1-2)Man(a1-6)]Man(b1-4)GlcNAc(b1-4)[Fuc(a1-6)]GlcNAc
Summary of the method: as §1

[22] = target: Fuc(a1-2)Gal(b1-4)GlcNAc(b1-2)[Fuc(a1-2)Gal(b1-4)GlcNAc(b1-4)]Man(a1-3)[Fuc(a1-2)Gal(b1-4)GlcNAc(b1-2)Man(a1-6)]Man(b1-4)GlcNAc(b1-4)GlcNAc
Summary of the method: as §1

[23] = target: Fuc(a1-2)Gal(b1-4)GlcNAc(b1-3)Gal(b1-4)GlcNAc
Summary of the method: as §1

[24] = target: Fuc(a1-2)Gal(b1-4)GlcNAc(b1-3)Gal(b1-4)GlcNAc(b1-2)Man(a1-3)[Fuc(a1-2)Gal(b1-4)GlcNAc(b1-3)Gal(b1-4)GlcNAc(b1-2)Man(a1-6)]Man(b1-4)GlcNAc(b1-4)GlcNAc
Summary of the method: as §1

[25] = target: Fuc(a1-2)Gal(b1-4)GlcNAc(b1-3)Gal(b1-4)GlcNAc(b1-3)Gal(b1-4)GlcNAc
Summary of the method: as §1

[26] = target: Fuc(a1-2)Gal(b1-4)GlcNAc(b1-3)GalNAc
Summary of the method: as §1

[27] = target: Fuc(a1-2)Gal(b1-4)GlcNAc(b1-3)[Fuc(a1-2)Gal(b1-4)GlcNAc(b1-6)]GalNAc
Summary of the method: as §1

[28] = target: Fuc(a1-2)Gal(b1-4)GlcNAc(b1-3)[Fuc(a1-3)[Gal(b1-4)]GlcNAc(b1-6)]Gal(b1-4)Glc
Summary of the method: as §1

[29] = target: Fuc(a1-2)Gal(b1-4)GlcNAc(b1-6)GalNAc
Summary of the method: as §1

[30] = target: Fuc(a1-2)Gal(b1-4)GlcNAc6S
Summary of the method: as §1

[31] = target: Fuc(a1-2)Gal(b1-4)[Fuc(a1-3)]GlcNAc
Summary of the method: as §1

B1: Loc1 (Escherichia coli) (protein)
chain: APCALTNVGEQRGTYILKPLSMKGNLTAEKIENTGNIIECTDLQETTNAIKVHFLTQNALKFKVGSRHYIINFPFEYDGKKIELPGKSSYNLEEMLSAINFTIPYSIASVSDSSNTADIFPGTPFPLLFEIEVSSCTGNNTNCNSVRFNYNLNTILQVNLMTHHHHHH
- glycan array binding signal (z-score) (Fuc(a1-2)Gal): 0.363
- glycan array binding signal (z-score) (Fuc(a1-2)Gal(b1-3)GalNAc): 0.266
- glycan array binding signal (z-score) [1]: 0.252
- glycan array binding signal (z-score) [2]: -0.027
- glycan array binding signal (z-score) [3]: -0.56
- glycan array binding signal (z-score) [4]: -0.719
- glycan array binding signal (z-score) [5]: -0.775
- glycan array binding signal (z-score) (Fuc(a1-2)Gal(b1-3)GlcNAc): 0.551
- glycan array binding signal (z-score) [6]: -1.09
- glycan array binding signal (z-score) [7]: 0.745
- glycan array binding signal (z-score) [8]: -0.688
- glycan array binding signal (z-score) [9]: -0.901
- glycan array binding signal (z-score) [10]: -0.061
- glycan array binding signal (z-score) [11]: -0.082
- glycan array binding signal (z-score) [12]: -0.102
- glycan array binding signal (z-score) [13]: -0.233
- glycan array binding signal (z-score) [14]: -0.727
- glycan array binding signal (z-score) [15]: -0.3
- glycan array binding signal (z-score) [16]: -0.297
- glycan array binding signal (z-score) [17]: 0.27
- glycan array binding signal (z-score) [18]: -0.244
- glycan array binding signal (z-score) (Fuc(a1-2)Gal(b1-4)Glc): -0.622
- glycan array binding signal (z-score) (Fuc(a1-2)Gal(b1-4)Glc6S): 0.154
- glycan array binding signal (z-score) (Fuc(a1-2)Gal(b1-4)GlcNAc): -0.37
- glycan array binding signal (z-score) [19]: -0.607
- glycan array binding signal (z-score) [20]: -0.36
- glycan array binding signal (z-score) [21]: -0.261
- glycan array binding signal (z-score) [22]: -0.533
- glycan array binding signal (z-score) [23]: 0.029
- glycan array binding signal (z-score) [24]: -0.378
- glycan array binding signal (z-score) [25]: -0.362
- glycan array binding signal (z-score) [26]: -0.732
- glycan array binding signal (z-score) [27]: -0.76
- glycan array binding signal (z-score) [28]: -0.522
- glycan array binding signal (z-score) [29]: -0.178
- glycan array binding signal (z-score) [30]: 0.269
- glycan array binding signal (z-score) [31]: -0.55
